No constants are given. Whether binding was seen depends on the method and setting. Some results given as binding are weak or reduced against the parent protein; the word gives no strength.
T1: FOXP3-6His (UniProt Q9BZS1-1 1-417)
T1 construct: FOXP3 (Forkhead box protein 3) transcription factor; also called His-tagged FOXP3
T1 sequence (looked up): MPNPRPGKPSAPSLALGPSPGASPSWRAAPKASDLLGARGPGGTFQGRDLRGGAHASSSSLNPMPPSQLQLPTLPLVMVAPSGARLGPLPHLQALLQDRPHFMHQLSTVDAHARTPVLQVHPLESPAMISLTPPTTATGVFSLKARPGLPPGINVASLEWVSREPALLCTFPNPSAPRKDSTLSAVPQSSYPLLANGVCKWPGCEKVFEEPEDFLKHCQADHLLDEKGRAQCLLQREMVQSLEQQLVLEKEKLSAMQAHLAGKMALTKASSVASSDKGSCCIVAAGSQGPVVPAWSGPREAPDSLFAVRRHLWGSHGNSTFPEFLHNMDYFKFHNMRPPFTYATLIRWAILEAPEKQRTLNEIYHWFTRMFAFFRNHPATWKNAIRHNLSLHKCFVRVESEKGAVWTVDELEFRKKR

By UniProt entry, the sequences of proteins in these tests, tags left out.
UniProt Q01196: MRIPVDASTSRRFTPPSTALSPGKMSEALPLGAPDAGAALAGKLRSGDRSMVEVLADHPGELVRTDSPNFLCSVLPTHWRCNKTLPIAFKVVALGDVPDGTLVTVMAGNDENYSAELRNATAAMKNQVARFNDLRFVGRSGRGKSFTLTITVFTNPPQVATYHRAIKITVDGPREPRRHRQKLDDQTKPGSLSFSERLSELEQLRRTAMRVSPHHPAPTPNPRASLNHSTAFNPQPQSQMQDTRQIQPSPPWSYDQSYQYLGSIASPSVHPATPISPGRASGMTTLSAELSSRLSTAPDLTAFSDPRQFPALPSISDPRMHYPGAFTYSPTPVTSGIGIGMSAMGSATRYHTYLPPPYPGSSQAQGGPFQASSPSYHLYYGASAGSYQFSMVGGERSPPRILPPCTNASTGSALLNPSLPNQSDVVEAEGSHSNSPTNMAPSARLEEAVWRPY


How the values were obtained:
FOXP3-GST fusion protein = FOXP3-GST fusion protein (UniProt Q9BZS1); experiment: AlphaScreen or HTRF; FOXP3-GST and AML1-His, similar protocol as for FOXP3/NFAT1; with or without peptide; both purified
FOXP3-6His = target: T1, FOXP3-6His; experiment: SPR; FOXP3-6His immobilised covalently on a GLC sensor chip (ProteOn XPR36); peptides 10 uM injected in triplicate; PBS, 0.005% Tween 20, pH 7.4; 30 uL/min; interspot signal as reference; both purified

Molecule	binding (FOXP3-GST fusion protein)	binding (FOXP3-6His)
AML1-His (from UniProt Q01196 1-453)	binds	
TRMFAFFRNHPATWK [F368–382]		binds
PATWKNAIRHNLSLH [F378–392]		binds
NAIRHNLSLHKCFVR [F383–397]		binds
IYHWFTRMFAFFRNH [F363–377]		binds

From publication PMC7922534, “Searching for Peptide Inhibitors of T Regulatory Cell Activity by Targeting Specific Domains of FOXP3 Transcription Factor” (Biomedicines, 2021)
